Record: PubChem BioAssay AID1259254 (NCATS, 2017)
The deposit covers about 59,000 reagents; below is a part drawn at random. In the full data, about 1,550 (2.6%) were called active. 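G2 share is only a proxy for re-replication; each gene was hit by three separate siRNAs, and active genes were retested.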 The numbers tell different reagents against one gene apart. Further read-outs or replicates are left out here. Not stated in the record: the amount of reagent.

- Test: 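Finding genes that stop cells copying their DNA twice in one cycle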 (primary screen)
- Cell system: human HCT116 colorectal cancer cells
- Knock-down reagent: single siRNA against human genes
- Time to read-out: 3 days
- Read-out: 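Nuclei stained with Hoechst and imaged; cell-cycle phase assigned by DNA content; G2 share scaled per plate, non-targeting siRNA 0%, GMNN siRNA 100%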
- Direction: G2 robust z-score: higher = more G2 cells, more excess DNA replication
- Active means: 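An siRNA counts as active if its G2 robust z-score lies at least 5 MADs above the screen median; here such calls match roughly 38% of GMNN control or more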

G2 robust z-score, by gene and reagent
STX16 (GeneID 8675): #1 1.79 inactive; #2 -0.392 inactive; #3 -0.341 inactive
PRR7 (GeneID 80758): #1 0.84 inactive; #2 2.11 inactive; #3 -0.771 inactive
SETD1A (GeneID 9739): #1 -0.513 inactive; #2 0.58 inactive; #3 -1.35 inactive
TMEM138 (GeneID 51524): #1 -0.214 inactive; #2 1.31 inactive; #3 0.812 inactive
EPHB2 (GeneID 2048): #1 4.95 inactive; #2 -0.764 inactive; #3 0.632 inactive
MX2 (GeneID 4600): #1 -0.337 inactive; #2 -0.637 inactive; #3 -0.494 inactive
LDLRAD2 (GeneID 401944): #1 0.0237 inactive; #2 4.59 inactive; #3 3.42 inactive
STAG3 (GeneID 10734): #1 0.433 inactive; #2 -0.455 inactive; #3 -0.073 inactive
CFHR3 (GeneID 10878): #1 0.789 inactive; #2 -0.13 inactive; #3 0.0492 inactive
TAS2R19 (GeneID 259294): #1 3.9 inactive; #2 -0.317 inactive; #3 -0.259 inactive

Entries above whose gene name begins with S or s (9):
G2 robust z-score, by gene and reagent
STX16 (GeneID 8675): #1 1.79 inactive; #2 -0.392 inactive; #3 -0.341 inactive
SETD1A (GeneID 9739): #1 -0.513 inactive; #2 0.58 inactive; #3 -1.35 inactive
STAG3 (GeneID 10734): #1 0.433 inactive; #2 -0.455 inactive; #3 -0.073 inactive

Next results follow:
G2 robust z-score, by gene and reagent
CCDC126 (GeneID 90693): #1 -0.318 inactive; #2 -0.486 inactive; #3 -0.052 inactive
TMTC4 (GeneID 84899): #1 1.52 inactive; #2 -1.04 inactive; #3 -0.0816 inactive
LCP2 (GeneID 3937): #1 3.56 inactive; #2 -1.15 inactive; #3 -0.361 inactive
PCSK7 (GeneID 9159): #1 -0.621 inactive; #2 4.22 inactive; #3 -0.804 inactive
KRT76 (GeneID 51350): #1 2.02 inactive; #2 -1.02 inactive; #3 -0.466 inactive
C1orf159 (GeneID 54991): #1 0.467 inactive; #2 -0.89 inactive; #3 -0.232 inactive
